# US4487932A, “2,6-Dimethyl-3,5-bis-(1-adamantylhydr oxycarbonyl)-4-(2-difluoromethoxyphenyl)-1,4-dihydropyridine” (Institut Organicheskogo Sinteza Akademii Nauk Latviiskoi, priority 1983, dated 1984)
# Read-outs that look alike come from different tables or passages of the source.
# Experiments:
# in vivo = settings: mouse, in vivo, ip
# Description: (§1) The studies of acute toxicity established the present compound to be low-toxic.
# (§2) Acute toxicity of investigated compounds for
# (§3) white mice upon intraperitoneal administration
# white mice = assay: in vivo; settings: white mice, intraperitoneal
# Description: as §1, §2, §3
# [1] = system: coronary circulation / cardiovascular system; settings: for Increase of space velocity of coronary blood flow / Lowering of arterial pressure / Duration / Change of systemic venous pressure: narcotized cats; for Duration: increase of coronary blood flow
# Description: The action of 2,6-dimethyl-3,5-bis-(1-adamantylhydroxycarbonyl)-4-(2-difluoromethoxyphenyl)-1,4-dihydropyridine on the cardiovascular system was investigated in experiments with cats, rats, and mice.
smiles,measurement,setting,value
"COC(=O)C1=C(C)NC(C)=C(C(=O)OC)C1c1ccccc1[N+](=O)[O-] [Niphedipine, 2,6-dimethyl-4-o-nitrophenyl-3,5-dimethoxycarbonyl-1,4-dihydropyridine, reference compound]",LD50,in vivo,190 mg/kg
same,LD50,white mice,190(146.15-247) mg/kg
same,aortal blood flow,[1]; doses exceeding 0.02 mg/kg,a pronounced diminution of the aortal blood flow
same,sharp drop of the arterial pressure (% of the initial one),[1]; doses exceeding 0.02 mg/kg,≥ 40%
same,systemic venous pressure,[1]; doses exceeding 0.02 mg/kg,an increase of the systemic venous pressure
same,Increase of space velocity of coronary blood flow,[1]; dose 0.005 mg/kg,12%
same,Lowering of arterial pressure,[1]; dose 0.005 mg/kg,12%
same,Duration,[1]; dose 0.005 mg/kg,12 min
same,Change of systemic venous pressure,[1]; dose 0.02 mg/kg,+5%
same,Increase of space velocity of coronary blood flow,[1]; dose 0.02 mg/kg,70%
same,Lowering of arterial pressure,[1]; dose 0.02 mg/kg,35%
same,Duration,[1]; dose 0.02 mg/kg,22 min
same,Change of systemic venous pressure,[1]; dose 0.06 mg/kg,+60%
same,Increase of space velocity of coronary blood flow,[1]; dose 0.06 mg/kg,130%
same,Lowering of arterial pressure,[1]; dose 0.06 mg/kg,60%
same,Duration,[1]; dose 0.06 mg/kg,45 min
